Experiment: solid-phase peptide synthesis
Settings: coupling step

Row | Substance | step yield
1 | D-CXCL8-Lys(Gly2-biotin) | 56% yield
2 | cys^34-ser^72-Lys(Gly2-biotin) | 20% yield
